Reference: PubChem BioAssay AID504764 (Drosophila RNAi Screening Center, 2011)

Assay: 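Knock-downs that raise or lower a Notch target reporter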 (primary screen)
Cells: Drosophila Kc167 cells
Knock-down reagent: long dsRNA against Drosophila genes
Timing: about 5 days (4 days dsRNA, then 24 h after transfection)
Treatment: transfection of constitutively active membrane-tethered Notch lacking the extracellular domain, read 24 h later
Read-out: 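Light from a Notch-responsive E(spl)m3 luciferase reporter under active Notch, with control-promoter and no-Notch reporter wells to normalise; raw counts from paired wells a and b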
Reading the numbers: induced reporter light, run 1, well a and induced reporter light, run 1, well b: higher = more light from the Notch target reporter with active Notch; control promoter light, run 1, well a and control promoter light, run 1, well b: higher = more light from the viral control promoter (cell number, transfection, viability); uninduced reporter light, run 1, well a: higher = more light from the Notch target reporter without active Notch
Hit rule: 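Hit if the duplicate-averaged log2 ratio of induced to control-promoter light gives a plate-wise z beyond ±2, or induced to uninduced beyond ±1.8; weak-control or discordant-duplicate wells dropped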
Meaning of the calls: active = modifier hit (raised or lowered Notch signal); inactive = not a hit
In all, the deposit lists about 22,000 reagents; shown is a random part of those with a known target gene and a result. In the full data, 403 (1.9%) are marked active. 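Unnormalised raw counts per well; ratio z-scores behind the hit calls and whether each hit raises or lowers signal are not deposited.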 A plus sign joins genes that one reagent is predicted to hit. Reagent sequences are not shown. Not given: the amount of reagent.

{"predicted target": "SCAR", "dsRNA": "DRSC03426", "induced reporter light, run 1, well a": 1.06e5, "induced reporter light, run 1, well b": 1.32e5, "control promoter light, run 1, well a": 71425, "control promoter light, run 1, well b": 92095, "uninduced reporter light, run 1, well a": 15290, "Outcome": "inactive"}
{"predicted target": "CG15914", "dsRNA": "DRSC19739", "induced reporter light, run 1, well a": 71425, "induced reporter light, run 1, well b": 58820, "control promoter light, run 1, well a": 75610, "control promoter light, run 1, well b": 59430, "uninduced reporter light, run 1, well a": 8930, "Outcome": "inactive"}
{"predicted target": "Crk", "dsRNA": "DRSC17163", "induced reporter light, run 1, well a": 1.64e5, "induced reporter light, run 1, well b": 2.25e5, "control promoter light, run 1, well a": 2.70e5, "control promoter light, run 1, well b": 2.59e5, "uninduced reporter light, run 1, well a": 13260, "Outcome": "inactive"}
{"predicted target": "Dna2", "dsRNA": "DRSC18254", "induced reporter light, run 1, well a": 1.76e5, "induced reporter light, run 1, well b": 1.56e5, "control promoter light, run 1, well a": 2.19e5, "control promoter light, run 1, well b": 2.33e5, "uninduced reporter light, run 1, well a": 12040, "Outcome": "inactive"}
{"predicted target": "Cpr65Ax2 + Cpr65Ax1", "dsRNA": "DRSC10341", "induced reporter light, run 1, well a": 1.46e5, "induced reporter light, run 1, well b": 1.37e5, "control promoter light, run 1, well a": 1.81e5, "control promoter light, run 1, well b": 1.56e5, "uninduced reporter light, run 1, well a": 10835, "Outcome": "inactive"}
{"predicted target": "Cpr65Ax2 + Cpr65Ax1", "dsRNA": "DRSC10344", "induced reporter light, run 1, well a": 2.11e5, "induced reporter light, run 1, well b": 2.29e5, "control promoter light, run 1, well a": 2.10e5, "control promoter light, run 1, well b": 1.96e5, "uninduced reporter light, run 1, well a": 11010, "Outcome": "inactive"}

An excerpt of the results above, for reference:
{"predicted target": "CG15914", "dsRNA": "DRSC19739", "induced reporter light, run 1, well a": 71425, "induced reporter light, run 1, well b": 58820, "control promoter light, run 1, well a": 75610, "control promoter light, run 1, well b": 59430, "uninduced reporter light, run 1, well a": 8930, "Outcome": "inactive"}
{"predicted target": "Crk", "dsRNA": "DRSC17163", "induced reporter light, run 1, well a": 1.64e5, "induced reporter light, run 1, well b": 2.25e5, "control promoter light, run 1, well a": 2.70e5, "control promoter light, run 1, well b": 2.59e5, "uninduced reporter light, run 1, well a": 13260, "Outcome": "inactive"}

More entries follow:
{"predicted target": "Syn", "dsRNA": "DRSC16876", "induced reporter light, run 1, well a": 72540, "induced reporter light, run 1, well b": 69180, "control promoter light, run 1, well a": 67340, "control promoter light, run 1, well b": 46875, "uninduced reporter light, run 1, well a": 4970, "Outcome": "inactive"}
{"predicted target": "spri", "dsRNA": "DRSC17846", "induced reporter light, run 1, well a": 69855, "induced reporter light, run 1, well b": 75830, "control promoter light, run 1, well a": 44010, "control promoter light, run 1, well b": 44855, "uninduced reporter light, run 1, well a": 9395, "Outcome": "inactive"}
{"predicted target": "spri", "dsRNA": "DRSC17984", "induced reporter light, run 1, well a": 71000, "induced reporter light, run 1, well b": 65460, "control promoter light, run 1, well a": 1.35e5, "control promoter light, run 1, well b": 1.26e5, "uninduced reporter light, run 1, well a": 5055, "Outcome": "inactive"}
{"predicted target": "spri", "dsRNA": "DRSC17985", "induced reporter light, run 1, well a": 1.22e5, "induced reporter light, run 1, well b": 1.16e5, "control promoter light, run 1, well a": 1.32e5, "control promoter light, run 1, well b": 1.40e5, "uninduced reporter light, run 1, well a": 7765, "Outcome": "inactive"}
{"predicted target": "spri", "dsRNA": "DRSC17986", "induced reporter light, run 1, well a": 1.13e5, "induced reporter light, run 1, well b": 1.10e5, "control promoter light, run 1, well a": 2.07e5, "control promoter light, run 1, well b": 1.41e5, "uninduced reporter light, run 1, well a": 10035, "Outcome": "inactive"}
{"predicted target": "spri", "dsRNA": "DRSC17988", "induced reporter light, run 1, well a": 80050, "induced reporter light, run 1, well b": 73035, "control promoter light, run 1, well a": 1.44e5, "control promoter light, run 1, well b": 1.22e5, "uninduced reporter light, run 1, well a": 6300, "Outcome": "inactive"}
{"predicted target": "spri", "dsRNA": "DRSC17989", "induced reporter light, run 1, well a": 88035, "induced reporter light, run 1, well b": 98335, "control promoter light, run 1, well a": 1.57e5, "control promoter light, run 1, well b": 1.51e5, "uninduced reporter light, run 1, well a": 7460, "Outcome": "inactive"}
{"predicted target": "spri", "dsRNA": "DRSC22927", "Outcome": "active"}
